Source: PubChem BioAssay AID328 (DTP/NCI, 2004)
The list does not hold the whole screen: it gathers tests that were run many times, whatever their T/C, doses with no T/C, and many T/C values between a quarter and a half above the control. Other doses and runs of a compound stand elsewhere. T/C gives the treated animals as a percentage of the vehicle group. Some entries give survivors of the animals treated and no T/C: the source holds a T/C of zero for them, seemingly a mark for toxic or unscored doses. Some doses without a T/C left all or most animals alive at the check, yet need not have been tolerated: survival well below the control is almost never listed, so the zero probably covers shortened survival too. Survivors were counted at the toxicity check, usually on the fifth day, unless a day is given; later deaths do not show. Schedule codes are those of the source, taken here to give the interval after Q, in days (D) or hours (H), and the number of doses after X. Where survival is the endpoint, the PubChem record calls one and a half times the control and up active, and a quarter to a half above the control has no call in these data; cut-offs in other NCI protocols can differ. Some T/C values are followed by the survivors on the day toxicity was checked, most often the fifth; where none is given, no animal had died by that day.

Test system: BDF1 mice, P388 leukemia ip, median survival T/C
Experiment: NCI In Vivo Anticancer Drug Screen. Data for tumor model P388 Leukemia (intraperitoneal) in B6D2F1 (BDF1) mice
Conditions: T/C endpoint: median survival time, higher T/C = longer survival
Procedure, shortened: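 In tumour-bearing mice, survival after compound treatment is set against the vehicle group and given as a quotient.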

[1] = dose: 25.0 mg/kg/injection, schedule: Q01DX009 (ip), vehicle: Klucel (hydroxypropylcellulose) (HPC)
[2] = dose: 100.0 mg/kg/injection, schedule: Q01DX009 (ip), vehicle: Klucel (hydroxypropylcellulose) (HPC)
[3] = dose: 200.0 mg/kg/injection, schedule: Q01DX009 (ip), vehicle: Klucel (hydroxypropylcellulose) (HPC)
[4] = dose: 50.0 mg/kg/injection, schedule: Q01DX009 (ip), vehicle: saline with Tween-80
[5] = dose: 100.0 mg/kg/injection, schedule: Q01DX009 (ip), vehicle: saline with Tween-80
[6] = dose: 100.0 mg/kg/injection, schedule: Q04DX003 (ip), vehicle: saline with Tween-80
[7] = dose: 400.0 mg/kg/injection, schedule: Q01DX009 (ip), vehicle: saline with Tween-80
[8] = dose: 200.0 mg/kg/injection, schedule: Q01DX009 (ip), vehicle: saline with Tween-80
[9] = dose: 200.0 mg/kg/injection, schedule: Q04DX003 (ip), vehicle: Klucel (hydroxypropylcellulose) (HPC)
[10] = dose: 200.0 mg/kg/injection, schedule: Q04DX003 (ip), vehicle: saline
[11] = dose: 400.0 mg/kg/injection, schedule: Q04DX003 (ip), vehicle: saline

## CC(C)n1c2c([n+](C)c1/C=C/c1ccccc1)C(=O)c1ccccc1C2=O
dose: 1.0 mg/kg/injection, schedule: Q01DX009 (ip), vehicle: saline with Tween-80
  T/C: 126 % of control
dose: 1.0 mg/kg/injection, schedule: Q01DX010 (ip), vehicle: saline
  T/C: 127 % of control
dose: 2.0 mg/kg/injection, schedule: Q01DX009 (ip), vehicle: Klucel (hydroxypropylcellulose) (HPC)
  survivor count: 4 of 6
dose: 2.0 mg/kg/injection, schedule: Q01DX009 (ip), vehicle: saline with Tween-80
  survivor count: 4 of 6
dose: 4.0 mg/kg/injection, schedule: Q01DX009 (ip), vehicle: Klucel (hydroxypropylcellulose) (HPC)
  survivor count: 3 of 6
dose: 4.0 mg/kg/injection, schedule: Q01DX009 (ip), vehicle: saline with Tween-80
  survivor count: 2 of 6
dose: 4.0 mg/kg/injection, schedule: Q01DX010 (ip), vehicle: saline
  survivor count: 3 of 6

## Cc1ncc(CSC(=N)N)n1Cc1ccccc1
dose: 20.0 mg/kg/injection, schedule: Q01DX009 (ip), vehicle: saline
  T/C: 130 % of control
dose: 33.0 mg/kg/injection, schedule: Q01DX009 (ip), vehicle: saline
  T/C: 135 % of control
dose: 50.0 mg/kg/injection, schedule: Q01DX009 (ip), vehicle: saline
  T/C: 144 % of control
dose: 75.0 mg/kg/injection, schedule: Q01DX009 (ip), vehicle: saline
  T/C: 126 % of control

## COC(=O)Nc1cccc(-c2nc3ccc(NC(=O)OC)cc3c(=O)n2-c2ccccc2)c1
[1]
  T/C: 137 % of control
[2]
  survivor count: 5 of 6
dose: 100.0 mg/kg/injection, schedule: Q01DX009 (ip), vehicle: saline
  survivor count: 5 of 7
dose: 150.0 mg/kg/injection, schedule: Q01DX009 (ip), vehicle: saline
  survivor count: 3 of 7
[3]
  survivor count: 1 of 6
dose: 200.0 mg/kg/injection, schedule: Q01DX009 (ip), vehicle: saline
  survivor count: 6 of 7
dose: 200.0 mg/kg/injection, schedule: Q01DX009 (oral), vehicle: Klucel (hydroxypropylcellulose) (HPC)
  T/C: 125 % of control
dose: 400.0 mg/kg/injection, schedule: Q01DX009 (oral), vehicle: Klucel (hydroxypropylcellulose) (HPC)
  T/C: 131 % of control

## CC(C)(C)OC(=O)NOc1ccc([N+](=O)[O-])cc1[N+](=O)[O-]
[4]
  survivor count: 4 of 6
[5]
  survivor count: 0 of 6
[6]
  survivor count: 4 of 6

## CCOC(=O)CCCN(c1sc(C)c(-c2ccccc2)c1C(=O)OCC)S(=O)(=O)c1ccc(C)cc1
[7]
  survivor count: 4 of 6

## CCCCCCCCCCCCCCCc1ccc(C(=O)C[n+]2ccccc2)cc1
dose: 25.0 mg/kg/injection, schedule: Q04DX003 (ip), vehicle: saline with Tween-80
  T/C: 131 % of control
dose: 37.5 mg/kg/injection, schedule: Q04DX003 (ip), vehicle: saline with Tween-80
  T/C: 136 % of control

## COc1cccc2c1C(=O)c1c(O)c3c(c(O)c1C2=O)CC(O)(C(=O)CO)CC3OC1CC(N)C(O)C(C)O1 (stereo not given) (tested in a mixture with another compound)
dose: 25.0 mg/kg/injection, schedule: Q01DX009 (ip), vehicle: other
  T/C: 127 % of control

## COc1ccc2c(c1)NC(c1ccccc1C(=O)O)c1cccn1-2 (stereo not given)
[4]
  survivor count: 6 of 6
[5]
  survivor count: 6 of 6
[8]
  survivor count: 5 of 6

## O=C(/C=N\O)c1ccncc1
[9]
  survivor count: 3 of 6

## CCOC(=O)c1c(NC(=O)CCC(=O)Nc2sc(C)c(C)c2C(=O)OCC)sc(C)c1C
dose: 100.0 mg/kg/injection, schedule: Q04DX003 (ip), vehicle: saline
  survivor count: 6 of 6
[8]
  survivor count: 6 of 6
[10]
  survivor count: 6 of 6

## O=C1CC2OCC=C3CN4CCC56c7ccccc7N1C5C2C3CC46 (stereo not given)
dose: 3.13 mg/kg/injection, schedule: Q01DX009 (ip), vehicle: saline with Tween-80
  survivor count: 0 of 6
dose: 6.25 mg/kg/injection, schedule: Q01DX009 (ip), vehicle: saline with Tween-80
  survivor count: 0 of 6
dose: 12.5 mg/kg/injection, schedule: Q01DX009 (ip), vehicle: saline with Tween-80
  survivor count: 0 of 6

## NNC(=O)c1ccccn1
[10]
  survivor count: 5 of 6
[11]
  survivor count: 0 of 6

## CC(CCC(=O)NC12CC3CC(CC(C3)C1)C2)C1CCC2C3CCC4CC(OC=O)CCC4(C)C3CC(OC=O)C12C (stereo not given)
dose: 50.0 mg/kg/injection, schedule: Q04DX002 (ip), vehicle: saline with Tween-80
  survivor count: 6 of 6
dose: 100.0 mg/kg/injection, schedule: Q04DX002 (ip), vehicle: saline with Tween-80
  survivor count: 6 of 6
dose: 200.0 mg/kg/injection, schedule: Q04DX002 (ip), vehicle: saline with Tween-80
  survivor count: 6 of 6
dose: 400.0 mg/kg/injection, schedule: Q04DX002 (ip), vehicle: saline with Tween-80
  survivor count: 6 of 6

## NC(CCSCc1ccc(N(CCCl)CCCl)cc1)C(=O)O (stereo not given)
dose: 2.6 mg/kg/injection, schedule: Q04DX003 (ip), vehicle: saline with Tween-80
  T/C: 140 % of control
dose: 4.0 mg/kg/injection, schedule: Q04DX003 (ip), vehicle: saline with Tween-80
  T/C: 145 % of control
[1]
  T/C: 135 % of control
[2]
  survivor count: 6 of 6
[9]
  T/C: 129 % of control
dose: 400.0 mg/kg/injection, schedule: Q04DX003 (ip), vehicle: Klucel (hydroxypropylcellulose) (HPC)
  survivor count: 6 of 6
dose: 750.0 micrograms/kg/injection, schedule: Q04DX003 (ip), vehicle: saline with Tween-80
  T/C: 135 % of control
dose: 1500.0 micrograms/kg/injection, schedule: Q04DX003 (ip), vehicle: saline with Tween-80
  T/C: 145 % of control

## CC[C@H](/C=C/[C@@H](C)[C@H]1CC[C@H]2[C@@H]3CC=C4C[C@@H](OC(=O)/C=C\C(=O)O)CC[C@]4(C)[C@H]3CC[C@]12C)C(C)C
dose: 35.0 mg/kg/injection, schedule: Q01DX009 (ip), vehicle: other
  survivor count: 6 of 6
dose: 55.0 mg/kg/injection, schedule: Q01DX009 (ip), vehicle: other
  survivor count: 5 of 6
dose: 80.0 mg/kg/injection, schedule: Q01DX009 (ip), vehicle: other
  survivor count: 0 of 6

## CCOC(=O)C(NC(=O)C(Cc1ccc(N(CCCl)CCCl)cc1)NC(C)=O)C(C)C (stereo not given)
dose: 20.0 mg/kg/injection, schedule: Q04DX003 (ip), vehicle: other
  T/C: 142 % of control
dose: 66.0 mg/kg/injection, schedule: Q04DX003 (ip), vehicle: saline with Tween-80
  T/C: 136 % of control
[6]
  T/C: 140 % of control
dose: 150.0 mg/kg/injection, schedule: Q04DX003 (ip), vehicle: saline with Tween-80
  T/C: 140 % of control

## C[CH2][Pb]([CH2]C)([CH2]C)[O]C(=O)COC
dose: 1.56 mg/kg/injection, schedule: Q01DX009 (ip), vehicle: Klucel (hydroxypropylcellulose) (HPC)
  T/C: 133 % of control
dose: 3.13 mg/kg/injection, schedule: Q01DX009 (ip), vehicle: Klucel (hydroxypropylcellulose) (HPC)
  T/C: 126 % of control
dose: 6.25 mg/kg/injection, schedule: Q01DX009 (ip), vehicle: Klucel (hydroxypropylcellulose) (HPC)
  survivor count: 6 of 6

## Nc1cc(N)cc([N+](=O)[O-])c1
dose: 25.0 mg/kg/injection, schedule: Q01DX009 (ip), vehicle: saline
  survivor count: 5 of 6
dose: 50.0 mg/kg/injection, schedule: Q04DX003 (ip), vehicle: saline
  survivor count: 3 of 6

## c1ccc(Nc2ncc3cnccn23)cc1
[11]
  survivor count: 3 of 6

## COc1cc2c(cc1OC)-c1cc3cc(OC)c(OC)cc3c(C)[n+]1CC2
[2]
  survivor count: 0 of 3
[3]
  survivor count: 0 of 3
dose: 400.0 mg/kg/injection, schedule: Q01DX009 (ip), vehicle: Klucel (hydroxypropylcellulose) (HPC)
  survivor count: 0 of 3

## CCCCCCC1OCC2(CO1)COC(CCCCCC)OC2 (stereo not given)
dose: 400.0 mg/kg/injection, schedule: Q04DX003 (ip), vehicle: saline with Tween-80
  survivor count: 6 of 6

## O=C(O)CNCc1ccc(F)cc1
[11]
  T/C: 130 % of control [5 of 6 alive]

## Nc1nc(N)c2c(n1)CCC(S(=O)(=O)c1ccc3ccccc3c1)C2 (stereo not given)
[8]
  T/C: 140 % of control
[7]
  T/C: 134 % of control [5 of 6 alive]
